For this experiment, the target named is Rsc2 with CBP tag only (bait for the RSC2 complex) (yeast (S. cerevisiae)) (UniProt Q06488). The experiment in a line: co-IP; yeast extracts; primary enrichment with anti-HA (Rep1), anti-Myc (Rep2) or anti-CBP (Rsc2-CBP or Rsc1-CBP); western blot with each of these antibodies. On the technique in general: A western blot detects proteins with antibodies after separation by electrophoresis.

Sequences of proteins named here, by UniProt entry; tags and fusion partners are left off. A change or cut given only in a name is not applied to a line headed by its entry.
UniProt Q06488: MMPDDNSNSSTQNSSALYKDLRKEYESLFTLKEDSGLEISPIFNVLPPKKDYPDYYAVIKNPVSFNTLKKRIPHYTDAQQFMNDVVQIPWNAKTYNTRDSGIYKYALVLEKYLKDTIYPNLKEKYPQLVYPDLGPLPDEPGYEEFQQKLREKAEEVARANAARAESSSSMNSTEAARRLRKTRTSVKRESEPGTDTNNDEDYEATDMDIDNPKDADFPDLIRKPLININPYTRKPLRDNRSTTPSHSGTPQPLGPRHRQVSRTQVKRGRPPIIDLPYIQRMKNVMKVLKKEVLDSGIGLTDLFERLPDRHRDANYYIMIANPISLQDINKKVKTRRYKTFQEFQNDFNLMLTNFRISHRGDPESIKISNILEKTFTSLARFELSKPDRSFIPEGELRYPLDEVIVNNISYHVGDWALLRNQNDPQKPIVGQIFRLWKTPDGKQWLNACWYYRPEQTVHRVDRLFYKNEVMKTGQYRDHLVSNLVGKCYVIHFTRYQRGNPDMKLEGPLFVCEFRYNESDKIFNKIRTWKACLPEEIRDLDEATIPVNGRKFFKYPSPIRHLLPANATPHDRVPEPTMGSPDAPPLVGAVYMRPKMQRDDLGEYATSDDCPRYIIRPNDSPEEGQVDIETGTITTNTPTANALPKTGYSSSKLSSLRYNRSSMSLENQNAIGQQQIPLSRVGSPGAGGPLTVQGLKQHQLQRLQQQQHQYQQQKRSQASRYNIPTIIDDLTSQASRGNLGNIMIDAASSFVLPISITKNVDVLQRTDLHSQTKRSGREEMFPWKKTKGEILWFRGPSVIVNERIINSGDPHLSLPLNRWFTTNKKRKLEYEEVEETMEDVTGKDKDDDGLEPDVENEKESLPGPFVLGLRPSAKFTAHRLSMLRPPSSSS

These are yes or no findings as the source states them, for the method shown. Binding seen in cells or lysates may run through a third protein. A result given as binding can be weak or reduced; the word gives no strength. Where a sequence is shown, tags or fusion partners need not be part of it.

B1: Myc-tagged Rep2 expressed in yeast (protein, UniProt P03872 1-296)
chain: MDDIETAKNLTVKARTAYSVWDVCRLFIEMIAPDVDIDIESKRKSDELLFPGYVIRPMESLTTGRPYGLDSSAEDSSVSSDSSAEVILPAAKMVKERFDSIGNGMLSSQEASQAAIDLMLQNNKLLDNRKQLYKSIAIIIGRLPEKDKKRATEMLMRKMDCTQLLVPPAPTEEDVMKLVSVVTQLLTLVPPDRQAALIGDLFIPESLKDIFNSFNELAAENRLQQKKSELEGRTEVNHANTNEEVPSRRTRSRDTNARGAYKLQNTITEGPKAVPTKKRRVATRVRGRKSRNTSRV
B1: the binding entry is listed as “binds”.

B2: HA-tagged Rep1 expressed in yeast (protein, UniProt P03871 1-373)
chain: MNGERLLACIKQCIMQHFQPMVYDESRCVIETTRGTFPVPDNYKKYKTLAFAFVGHVLNTDDTPVIEKELDWPDPALVYNTIVDRIINHPELSQFISVAFISQLKATIGEGLDINVKGTLNRRGKGIRRPKGVFFRYMESPFVNTKVTAFFSYLRDYNKIASEYHNNTKFILTFSCQAYWASGPNFSALKNVIRCSIIHEYISKFVEREQDKGHIGDQELPPEEDPSRELNNVQHEVNSLTEQDAEADEGLWGEIDSLCEKWQSEAEDQTEAEIIADRIIGNSQRMANLKIRRTKFKSVLYHILKELIQSQGTVKVYRGSSFSHDSIKISLHYEEQHITAVWVYLTVKFEEHWKPVDVEVEFRCKFKERKVDG
With B2, the binding entry is “binds”.

For the origin of these results see paper PMC10586699.
